Our source for the binding values is paper PMC12240322.

Protein sequences, listed by entry. Tags and fused reporters are not part of them.
UniProt Q6A078: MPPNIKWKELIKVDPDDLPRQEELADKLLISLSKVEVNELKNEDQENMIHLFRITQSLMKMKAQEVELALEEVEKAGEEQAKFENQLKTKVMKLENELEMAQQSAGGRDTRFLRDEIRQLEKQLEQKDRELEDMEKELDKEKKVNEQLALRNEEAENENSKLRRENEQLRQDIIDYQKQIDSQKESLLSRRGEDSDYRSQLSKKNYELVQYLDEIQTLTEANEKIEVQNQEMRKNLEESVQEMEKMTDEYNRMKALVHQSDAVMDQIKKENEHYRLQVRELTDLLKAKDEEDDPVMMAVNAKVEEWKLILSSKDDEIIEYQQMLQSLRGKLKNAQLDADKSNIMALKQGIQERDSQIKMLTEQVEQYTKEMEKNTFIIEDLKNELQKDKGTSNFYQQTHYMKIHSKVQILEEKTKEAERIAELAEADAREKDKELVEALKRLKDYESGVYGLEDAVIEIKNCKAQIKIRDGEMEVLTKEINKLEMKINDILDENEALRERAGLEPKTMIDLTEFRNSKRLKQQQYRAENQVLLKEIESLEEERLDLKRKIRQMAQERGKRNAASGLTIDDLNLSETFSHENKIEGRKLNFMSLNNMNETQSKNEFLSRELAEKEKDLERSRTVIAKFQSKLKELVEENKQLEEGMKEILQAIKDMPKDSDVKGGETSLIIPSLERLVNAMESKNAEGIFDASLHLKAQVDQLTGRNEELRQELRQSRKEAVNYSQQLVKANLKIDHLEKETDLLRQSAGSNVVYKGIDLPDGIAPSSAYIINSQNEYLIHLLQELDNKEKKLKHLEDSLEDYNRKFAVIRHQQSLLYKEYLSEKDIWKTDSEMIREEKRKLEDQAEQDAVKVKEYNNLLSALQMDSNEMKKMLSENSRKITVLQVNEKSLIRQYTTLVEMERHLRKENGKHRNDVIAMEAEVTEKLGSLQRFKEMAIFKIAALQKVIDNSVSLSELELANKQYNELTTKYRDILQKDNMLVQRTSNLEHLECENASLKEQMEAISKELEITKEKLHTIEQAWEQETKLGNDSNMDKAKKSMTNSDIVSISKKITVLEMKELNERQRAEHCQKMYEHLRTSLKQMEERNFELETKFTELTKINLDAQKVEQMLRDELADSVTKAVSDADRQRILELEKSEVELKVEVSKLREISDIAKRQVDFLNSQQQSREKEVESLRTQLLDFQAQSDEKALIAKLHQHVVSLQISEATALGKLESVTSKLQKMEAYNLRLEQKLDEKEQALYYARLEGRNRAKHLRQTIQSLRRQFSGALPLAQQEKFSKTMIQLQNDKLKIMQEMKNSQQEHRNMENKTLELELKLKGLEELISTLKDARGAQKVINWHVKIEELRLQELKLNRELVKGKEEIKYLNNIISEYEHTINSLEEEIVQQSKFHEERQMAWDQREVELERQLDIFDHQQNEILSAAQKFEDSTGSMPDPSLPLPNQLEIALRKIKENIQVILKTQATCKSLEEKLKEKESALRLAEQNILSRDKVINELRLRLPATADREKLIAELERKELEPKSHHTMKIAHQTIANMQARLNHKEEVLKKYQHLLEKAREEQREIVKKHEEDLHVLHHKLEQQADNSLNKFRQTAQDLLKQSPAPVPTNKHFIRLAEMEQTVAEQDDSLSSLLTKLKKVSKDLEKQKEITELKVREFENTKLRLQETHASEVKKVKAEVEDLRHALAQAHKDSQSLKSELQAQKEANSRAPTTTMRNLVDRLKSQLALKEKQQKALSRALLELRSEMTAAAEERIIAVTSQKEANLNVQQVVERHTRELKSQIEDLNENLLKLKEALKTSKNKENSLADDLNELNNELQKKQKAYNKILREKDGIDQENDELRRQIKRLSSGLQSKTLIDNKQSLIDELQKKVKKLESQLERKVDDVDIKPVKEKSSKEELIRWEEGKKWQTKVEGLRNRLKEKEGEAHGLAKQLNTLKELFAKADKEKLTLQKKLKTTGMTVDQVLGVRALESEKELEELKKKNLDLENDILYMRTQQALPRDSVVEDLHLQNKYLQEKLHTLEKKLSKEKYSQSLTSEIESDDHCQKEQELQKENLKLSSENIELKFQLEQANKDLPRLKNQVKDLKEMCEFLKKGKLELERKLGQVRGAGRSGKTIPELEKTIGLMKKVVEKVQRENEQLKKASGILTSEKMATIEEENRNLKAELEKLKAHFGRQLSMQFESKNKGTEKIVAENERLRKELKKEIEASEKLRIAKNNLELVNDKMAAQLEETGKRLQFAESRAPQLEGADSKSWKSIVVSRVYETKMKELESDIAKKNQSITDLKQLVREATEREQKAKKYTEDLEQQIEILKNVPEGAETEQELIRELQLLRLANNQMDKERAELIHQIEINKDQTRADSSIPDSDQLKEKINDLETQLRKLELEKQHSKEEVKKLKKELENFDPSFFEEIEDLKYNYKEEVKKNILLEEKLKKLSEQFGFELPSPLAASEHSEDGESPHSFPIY
UniProt Q61315: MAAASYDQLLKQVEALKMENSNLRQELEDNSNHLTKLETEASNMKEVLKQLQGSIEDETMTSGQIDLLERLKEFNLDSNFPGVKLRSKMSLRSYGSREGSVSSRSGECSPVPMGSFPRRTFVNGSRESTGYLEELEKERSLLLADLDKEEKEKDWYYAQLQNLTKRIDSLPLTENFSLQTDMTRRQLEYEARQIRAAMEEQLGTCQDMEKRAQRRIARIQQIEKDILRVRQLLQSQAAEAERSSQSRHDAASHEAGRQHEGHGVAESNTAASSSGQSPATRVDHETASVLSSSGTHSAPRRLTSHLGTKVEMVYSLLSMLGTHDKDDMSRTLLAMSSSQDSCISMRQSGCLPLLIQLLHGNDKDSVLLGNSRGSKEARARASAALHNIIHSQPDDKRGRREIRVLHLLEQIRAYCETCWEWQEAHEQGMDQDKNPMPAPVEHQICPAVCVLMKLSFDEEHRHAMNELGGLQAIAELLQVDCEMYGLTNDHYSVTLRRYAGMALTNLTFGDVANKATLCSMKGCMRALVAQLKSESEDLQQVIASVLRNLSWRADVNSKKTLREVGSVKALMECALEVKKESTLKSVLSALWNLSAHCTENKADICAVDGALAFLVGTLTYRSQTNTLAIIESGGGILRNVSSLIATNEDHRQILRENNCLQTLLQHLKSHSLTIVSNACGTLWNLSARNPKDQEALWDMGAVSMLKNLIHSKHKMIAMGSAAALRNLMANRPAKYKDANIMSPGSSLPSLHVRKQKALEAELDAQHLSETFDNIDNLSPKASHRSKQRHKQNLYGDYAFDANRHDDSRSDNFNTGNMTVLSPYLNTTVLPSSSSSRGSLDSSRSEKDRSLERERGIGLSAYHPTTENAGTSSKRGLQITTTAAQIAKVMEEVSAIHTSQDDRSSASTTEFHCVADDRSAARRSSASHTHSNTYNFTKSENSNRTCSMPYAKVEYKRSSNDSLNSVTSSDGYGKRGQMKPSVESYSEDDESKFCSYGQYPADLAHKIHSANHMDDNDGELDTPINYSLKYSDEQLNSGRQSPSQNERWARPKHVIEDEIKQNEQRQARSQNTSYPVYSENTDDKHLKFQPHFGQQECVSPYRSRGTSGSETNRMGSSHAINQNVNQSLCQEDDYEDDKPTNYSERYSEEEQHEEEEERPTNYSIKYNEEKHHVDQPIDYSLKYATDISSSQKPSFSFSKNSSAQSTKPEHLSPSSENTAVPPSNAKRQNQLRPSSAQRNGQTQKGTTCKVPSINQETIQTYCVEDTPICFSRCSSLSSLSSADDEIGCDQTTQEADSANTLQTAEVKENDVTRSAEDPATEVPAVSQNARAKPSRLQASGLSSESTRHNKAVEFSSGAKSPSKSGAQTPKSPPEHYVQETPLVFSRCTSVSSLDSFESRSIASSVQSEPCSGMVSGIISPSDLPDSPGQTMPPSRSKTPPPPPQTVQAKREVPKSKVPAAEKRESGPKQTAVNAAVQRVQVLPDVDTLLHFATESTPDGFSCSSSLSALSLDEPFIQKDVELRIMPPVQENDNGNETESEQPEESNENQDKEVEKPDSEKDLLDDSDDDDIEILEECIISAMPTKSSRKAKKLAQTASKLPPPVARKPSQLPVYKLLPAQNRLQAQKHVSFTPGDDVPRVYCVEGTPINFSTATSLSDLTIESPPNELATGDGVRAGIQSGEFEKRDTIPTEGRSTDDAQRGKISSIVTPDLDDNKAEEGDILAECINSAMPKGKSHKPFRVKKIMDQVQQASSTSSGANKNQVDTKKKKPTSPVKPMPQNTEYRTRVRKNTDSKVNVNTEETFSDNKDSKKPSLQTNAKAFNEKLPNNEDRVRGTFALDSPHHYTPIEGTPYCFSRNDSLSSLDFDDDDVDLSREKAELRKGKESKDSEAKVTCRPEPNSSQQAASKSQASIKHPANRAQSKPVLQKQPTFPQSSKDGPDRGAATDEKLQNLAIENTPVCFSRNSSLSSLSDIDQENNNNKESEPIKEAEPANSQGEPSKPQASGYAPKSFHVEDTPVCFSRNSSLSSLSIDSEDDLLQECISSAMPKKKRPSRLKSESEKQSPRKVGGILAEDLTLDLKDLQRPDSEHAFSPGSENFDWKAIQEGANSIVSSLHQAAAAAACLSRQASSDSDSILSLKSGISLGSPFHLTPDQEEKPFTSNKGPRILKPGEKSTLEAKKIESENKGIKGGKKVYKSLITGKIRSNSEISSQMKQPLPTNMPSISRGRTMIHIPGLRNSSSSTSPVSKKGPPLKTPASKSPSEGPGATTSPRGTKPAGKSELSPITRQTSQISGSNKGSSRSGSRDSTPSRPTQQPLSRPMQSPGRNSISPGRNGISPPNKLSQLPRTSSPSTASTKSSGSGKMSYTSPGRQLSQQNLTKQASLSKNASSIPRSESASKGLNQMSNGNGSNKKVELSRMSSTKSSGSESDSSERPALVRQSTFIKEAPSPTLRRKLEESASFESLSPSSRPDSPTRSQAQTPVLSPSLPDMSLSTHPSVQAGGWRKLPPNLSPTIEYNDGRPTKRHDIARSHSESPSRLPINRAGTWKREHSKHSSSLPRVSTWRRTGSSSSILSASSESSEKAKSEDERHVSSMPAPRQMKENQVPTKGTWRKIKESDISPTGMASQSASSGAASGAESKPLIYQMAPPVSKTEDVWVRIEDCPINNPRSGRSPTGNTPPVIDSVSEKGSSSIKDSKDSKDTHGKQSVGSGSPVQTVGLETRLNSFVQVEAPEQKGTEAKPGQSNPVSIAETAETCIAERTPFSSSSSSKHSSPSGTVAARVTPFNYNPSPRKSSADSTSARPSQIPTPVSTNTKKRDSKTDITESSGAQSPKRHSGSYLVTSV
UniProt Q8VI36: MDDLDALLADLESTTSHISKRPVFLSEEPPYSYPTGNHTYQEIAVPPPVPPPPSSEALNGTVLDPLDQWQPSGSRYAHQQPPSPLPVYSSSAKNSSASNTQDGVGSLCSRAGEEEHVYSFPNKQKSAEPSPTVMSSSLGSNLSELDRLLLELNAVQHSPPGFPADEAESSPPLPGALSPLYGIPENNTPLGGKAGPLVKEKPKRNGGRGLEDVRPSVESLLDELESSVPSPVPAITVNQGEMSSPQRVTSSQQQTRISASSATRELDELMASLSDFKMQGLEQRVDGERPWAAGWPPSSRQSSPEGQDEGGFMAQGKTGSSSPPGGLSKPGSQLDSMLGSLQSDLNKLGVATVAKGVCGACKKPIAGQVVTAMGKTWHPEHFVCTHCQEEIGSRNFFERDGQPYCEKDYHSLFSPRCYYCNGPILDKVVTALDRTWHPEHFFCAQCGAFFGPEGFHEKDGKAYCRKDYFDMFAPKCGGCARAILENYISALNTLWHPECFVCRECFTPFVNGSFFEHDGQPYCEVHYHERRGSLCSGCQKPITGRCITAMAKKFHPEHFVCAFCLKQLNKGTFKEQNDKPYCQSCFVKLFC

No constants are given. Whether binding was seen depends on the method and setting. Binding seen in cells or lysates may run through a third protein. Some entries that bind do so weakly or less than the wild type.

The target of assay [1] is PA-tagged CEP290 (centrosomal protein 290) (mouse (endogenous in mIMCD3)) (UniProt Q6A078). The assay is described as follows: proximity ligation; Duolink PLA on PA-CEP290 mIMCD3 cells fixed with 4% PFA; anti-APC (rabbit) with anti-rabbit IgG-MINUS probe and anti-PA tag-PLUS probe.
Assay [2] has the same target. The assay is described as follows: co-IP; lysate of PA-CEP290 knock-in mIMCD3 cells; immunoprecipitation with anti-PA, anti-APC or anti-paxillin antibodies, Western blotting. On the technique in general: In western blotting, separated proteins are transferred to a membrane and probed.
For assay [3], the target named is Adenomatous polyposis coli (APC) (mouse (endogenous in mIMCD3)) (UniProt Q61315). Described as above.

With “Adenomatous polyposis coli (APC) (from UniProt Q61315 1-2845)”, the binding result in assay [1] and in assay [2] was “binds” each time. On to “PA-tagged CEP290 (centrosomal protein 290) (from UniProt Q6A078 1-2472)”, for which, in assay [3], the binding entry is “binds”.

In the case of Paxillin (from UniProt Q8VI36 1-591), the binding result in assay [2] is “no binding”.
